The values that follow come from paper PMC7338359.

Chains of the proteins cited; added tags and fusions are not shown.
UniProt Q13547: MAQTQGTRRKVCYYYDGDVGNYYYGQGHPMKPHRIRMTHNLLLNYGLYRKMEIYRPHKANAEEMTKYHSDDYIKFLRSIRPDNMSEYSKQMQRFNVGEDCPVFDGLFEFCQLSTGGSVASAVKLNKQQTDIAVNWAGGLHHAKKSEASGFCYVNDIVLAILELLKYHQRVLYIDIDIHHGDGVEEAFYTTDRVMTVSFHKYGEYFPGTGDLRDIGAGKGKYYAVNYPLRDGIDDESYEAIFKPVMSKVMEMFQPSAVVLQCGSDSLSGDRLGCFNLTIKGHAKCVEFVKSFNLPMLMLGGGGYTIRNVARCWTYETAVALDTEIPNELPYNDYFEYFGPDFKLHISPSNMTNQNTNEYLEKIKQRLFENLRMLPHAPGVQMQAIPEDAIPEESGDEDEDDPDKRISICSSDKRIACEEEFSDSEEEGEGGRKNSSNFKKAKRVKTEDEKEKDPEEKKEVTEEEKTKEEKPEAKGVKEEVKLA

This experiment has as its target T1, GFP-tagged PAICS (phosphoribosylaminoimidazole carboxylase, phosphoribosylaminoimidazole succinocarboxamide synthetase) (UniProt P22234).
T1 sequence: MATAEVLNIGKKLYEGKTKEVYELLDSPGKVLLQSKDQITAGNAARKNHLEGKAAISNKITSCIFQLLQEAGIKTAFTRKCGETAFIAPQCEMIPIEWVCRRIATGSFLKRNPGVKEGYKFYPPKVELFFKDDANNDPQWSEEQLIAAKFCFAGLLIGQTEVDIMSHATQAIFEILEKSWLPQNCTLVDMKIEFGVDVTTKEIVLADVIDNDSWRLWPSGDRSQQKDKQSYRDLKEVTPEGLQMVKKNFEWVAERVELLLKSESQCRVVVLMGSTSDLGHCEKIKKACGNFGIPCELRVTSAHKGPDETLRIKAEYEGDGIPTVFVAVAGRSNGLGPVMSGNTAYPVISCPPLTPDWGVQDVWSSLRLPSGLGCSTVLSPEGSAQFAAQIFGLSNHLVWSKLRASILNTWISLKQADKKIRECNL
Nature of the experiment: affinity purification with mass spectrometry; HEK293T cells transfected with GFP-vector or GFP-PAICS, with or without CDDP (10 µg/mL for 12 h, 2-h recovery); lysates immunoprecipitated with anti-GFP, SDS-PAGE, coomassie stain, mass spectrometric analysis.

Results are given in words; binding and its absence hold for the method and conditions named. Binding seen in cells or lysates may run through a third protein. Here binding means that the protein was enriched with, or labelled near, the bait; the list need not be complete. Where a sequence is shown, tags or fusion partners need not be part of it.

As to “histone deacetylase HDAC1, endogenous in HEK293T cells (from UniProt Q13547 1-482) (enzyme)”, the binding entry is on record as “binds”.
